Assay results from PubChem BioAssay AID504648 (National Center for Advancing Translational Sciences (NCATS), 2011).
The campaign covered roughly 390,000 compounds. About 610 (0.16%) were called active. Inconclusive means that the source gave no clear call. Such entries were picked first, then a sample of the others. The call rests on the fitted dose curve; in most records, active means well fitted inhibition curve with a large enough effect; inconclusive means small, poorly fitted or top-dose-only effect, or effect the other way, or another doubt; inactive means no such curve, though single readings can be large or run the other way. Potencies beside an inconclusive call are fits to weak or partial responses and may not hold up.

experiment: Nrf2 qHTS screen for inhibitors: counterscreen for cytotoxicity; details: A549 ARE-Fluc cells, CellTiter-Fluor viability, 18-24 h; activity change, negative = cytotoxicity: at 46 µM (top of the series)
Summary of the method: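 A549 ARE-Fluc cells in 5% FBS OPTI-MEM, 5000 cells/well, rested 2 h then exposed to compounds in concentration-response for 18-24 h at 37 °C. Viability by CellTiter-Fluor fluorescence (Ex 405/Em 525) after 30 min; luciferase luminescence (BugLite, 15 min, RT) read afterwards.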
On the % scale 0 is the no-effect control and ±100 the full control effect; potency means the concentration at half of the fitted maximal effect.

| Structure (SMILES) | activity change, negative = cytotoxicity | Potency |
| --- | --- | --- |
| O=C(Nc1ccccc1Cl)NN1CCCCCC1 | inactive: 4.14% | – |
| COc1cc(C(C[N+](=O)[O-])c2c(N)n(C)c(=O)n(C)c2=O)ccc1O (stereo unspecified) | – | inconclusive: 13 µM [falling, partial curve, poor fit] |
| COc1ccc(C(CNC(=O)c2cccc(S(=O)(=O)N3CCc4ccccc43)c2)N(C)C)cc1 (stereo unspecified) | – | inconclusive: 18.4 µM [falling, partial curve, poor fit] |
| Cn1c(NC(=O)CCc2ccccc2)cc(=O)n(C)c1=O | – | inconclusive: 14.6 µM [activator, partial curve, poor fit] |
| Cn1c(-c2ccc(-c3ccccc3)cc2)c[nH]c1=S | inactive: -17.1% | – |
| C=C(C)C1(O)OC(=O)C=C1OC (stereo unspecified) | – | inconclusive: 20.6 µM [falling, partial curve, poor fit] |
| C[n+]1c2cc(N)ccc2cc2ccc(N)cc21 | – | inconclusive: 18.4 µM [activator, single point] |
| O=C(c1cc(C(=O)NCCc2ccccc2)c(=O)n(CCc2ccccc2)c1)c1cc(Cl)ccc1O | – | inconclusive: 32.6 µM [falling, partial curve, poor fit] |
| COc1ccc(C(=O)/C=C/C(=O)N(CC(=O)NC2CCCCC2)Cc2ccccc2OC)c(O)c1 | – | inconclusive: 29.1 µM [falling, single point] |
| COc1cccc(NC(=O)CCc2nc(-c3cc(OC)c(OC)c(OC)c3)no2)c1 | inactive: 3.82% | – |
| COCCn1c(SCC(=O)Nc2sccc2C(N)=O)nc2cc(Cl)ccc2c1=O | – | inconclusive: 29.1 µM [falling, partial curve, poor fit] |
| O=[N+]([O-])c1ccc(N2CCCC2)nc1N1CCCC1 | inactive: -17.1% | – |
| CCOC(=O)C1(CCc2ccccc2)CCN(Cc2ccc(C(=O)OC)cc2)CC1 | – | inconclusive: 25.9 µM [falling, partial curve, poor fit] |
| CCCNC(=O)Cn1c(=O)n(C)c2ccccc21 | – | inconclusive: 32.6 µM [activator, partial curve, poor fit] |
| CCC1=NN(C(=O)c2ccc([N+](=O)[O-])cc2)C(O)(c2ccccc2)C1 (stereo unspecified) | – | inconclusive: 14.6 µM [falling, partial curve] |
| CCC(O)CNC(=O)NC(=C(Cl)Cl)c1ccc(C)c(F)c1 (stereo unspecified) | inactive: -13.7% | – |
| CCC(CN(C)C)Oc1cc(NCc2ccccc2)c2ncn(C(C)C)c2c1 (stereo unspecified) | – | inconclusive: 29.1 µM [falling, partial curve, poor fit] |
| Cc1c2c(n3c(nc4ccccc43)c1C#N)N(CCCN(C)C)CC2 | – | inconclusive: 18.4 µM [activator, partial curve] |
| Cc1cccc(COCC(Cc2ccccc2)N2CCN(C(=O)c3ccc(C(F)(F)F)cc3)CCC2=O)c1 (stereo unspecified) | – | inconclusive: 23.1 µM [falling, partial curve, poor fit] |
| O=C(NCCc1cccs1)c1ccc(Cn2c(SCc3ccc(F)cc3)nc3cccnc32)cc1 | – | inconclusive: 16.4 µM [falling, partial curve, poor fit] |
| C#CCOCCOCCOCCNc1nc(N2CCN(C(=O)CCCCCCCCCCNC(=O)[C@H](CCCCN)n3cc(C[C@@H](C)CC)nn3)CC2)nc(N2CCN(C(=O)CCCCCCCCCCNC(=O)[C@@H]([C@H](C)O)n3cc(C)nn3)CC2)n1 | – | inconclusive: 18.4 µM [falling, single point] |

Another view of some results above.
Structure (SMILES)	activity change, negative = cytotoxicity	Potency
O=C(Nc1ccccc1Cl)NN1CCCCCC1	inactive: 4.14%	–
O=C(c1cc(C(=O)NCCc2ccccc2)c(=O)n(CCc2ccccc2)c1)c1cc(Cl)ccc1O	–	inconclusive: 32.6 µM [falling, partial curve, poor fit]
O=[N+]([O-])c1ccc(N2CCCC2)nc1N1CCCC1	inactive: -17.1%	–
CCC(O)CNC(=O)NC(=C(Cl)Cl)c1ccc(C)c(F)c1 (stereo unspecified)	inactive: -13.7%	–
C#CCOCCOCCOCCNc1nc(N2CCN(C(=O)CCCCCCCCCCNC(=O)[C@H](CCCCN)n3cc(C[C@@H](C)CC)nn3)CC2)nc(N2CCN(C(=O)CCCCCCCCCCNC(=O)[C@@H]([C@H](C)O)n3cc(C)nn3)CC2)n1	–	inconclusive: 18.4 µM [falling, single point]

Continued:

| Structure (SMILES) | activity change, negative = cytotoxicity | Potency |
| --- | --- | --- |
| Cc1ccc(NC(=O)c2ncn(CC(=O)N[C@H](C)c3cccc4ccccc34)n2)cc1C | – | inconclusive: 29.1 µM [falling, partial curve, poor fit] |
| O=C(NCc1ccc2c(c1)OCO2)c1ccc2c(=O)n(C3CCCC3)c(=O)[nH]c2c1 | – | inconclusive: 5.17 µM [falling, single point] |
| Cc1[nH]c(N=Nc2ccccc2)nc1N=Nc1ccccc1 | – | inconclusive: 29.1 µM [falling, single point] |
| Cc1ccc(CCc2nnc(SCC(=O)Nc3cc(Cl)ccc3Cl)n2-c2ccccc2)o1 | – | inconclusive: 29.1 µM [falling, single point] |
| Cc1cccc(NC(=O)c2cccc([N+](=O)[O-])c2O)c1C | – | inconclusive: 29.1 µM [falling, partial curve, poor fit] |
| CCC(=O)Nc1ccc(NC(=O)CSc2nc3cc4c(cc3cc2C)CCC4)cc1 | – | inconclusive: 23.1 µM [falling, partial curve, poor fit] |
| CCC(=O)NC(c1cccs1)c1ccc2cccnc2c1O (stereo unspecified) | – | inactive |
| O=C(CCCn1c(=S)[nH]c2cc3c(cc2c1=O)OCO3)NCc1cccc(Cl)c1 | – | inconclusive: 2.91 µM [activator, single point] |
| c1ccc(CNc2nc(N3CCN(Cc4ccccc4)CC3)nc3ccccc23)cc1 | – | inconclusive: 16.4 µM [falling, partial curve, poor fit] |
| N=c1c2c(-c3ccccc3)c(-c3ccccc3)n(Cc3ccco3)c2ncn1CCCO | – | inconclusive: 29.1 µM [falling, single point] |
| O=C(N/N=C/c1c[nH]c2ccccc12)c1cccc([N+](=O)[O-])c1 | inactive: 2.48% | – |
| COc1cc(C)ccc1S(=O)(=O)N1CCN(C23CC4CC(CC(C4)C2)C3)CC1 | – | inconclusive: 32.6 µM [falling, partial curve, poor fit] |
| CCN1C(c2ccccc2)=C(c2ccccc2)S/C1=C\C=C1/SC(=S)N(C)C1=O | – | inconclusive: 2.59 µM [falling, full curve] |
| COc1ccc(NC(=O)CCS(=O)(=O)c2nc(-c3cccs3)cc(C(F)(F)F)n2)cc1OC | inactive: 2.37% | – |
| CCCC(c1nnnn1C(C)(C)CC)N(CCCO)Cc1cc2cc(C)cc(C)c2[nH]c1=O (stereo unspecified) | – | inconclusive: 23.1 µM [falling, partial curve] |
| COc1ccc(NC(=O)CSc2nc3c(sc4ccccc43)c(=O)n2CCCN2CCCC2)cc1 | – | inconclusive: 23.1 µM [falling, single point] |
| CCn1nc(C(=O)OC(C(=O)c2c[nH]c3ccccc23)c2ccccc2)c2ccccc2c1=O (stereo unspecified) | – | inconclusive: 18.4 µM [falling, partial curve, poor fit] |
| C#CC(C)(C)NS(=O)(=O)c1cc(-c2nnc(Nc3ccc(C)cc3)c3ccccc23)ccc1C | – | inconclusive: 32.6 µM [falling, partial curve, poor fit] |
| CCc1nc2ccccc2n(CCOCCn2c(=O)c(CC)nc3ccccc32)c1=O | inactive: 0.689% [at 1.84 µM] | – |
| CC(C)CN=C(NS(=O)(=O)c1ccccc1)C(Cl)(Cl)Cl | – | inconclusive: 23.1 µM [falling, partial curve, poor fit] |
| CN(CC(=O)NC(=O)NCc1ccccc1)Cc1cccc(Cl)c1Cl | – | inconclusive: 4.11 µM [activator, partial curve, poor fit] |

| Structure (SMILES) | activity change, negative = cytotoxicity | Potency |
| --- | --- | --- |
| O=C1c2[nH]nc(-c3ccccc3O)c2C(c2ccccc2)N1Cc1ccco1 (stereo unspecified) | inactive: -9.22% | – |
| CCN1CCN(Cc2nc3c(c(=O)n(C)c(=O)n3C)n2Cc2cccc3ccccc23)CC1 | – | inconclusive: 2.91 µM [activator, full curve, poor fit] |
| CCCCCCCCCc1nc2sc3c(c2c(=O)n1NC(=O)c1ccc([N+](=O)[O-])cc1)CC(C)(C)OC3 | – | inconclusive: 29.1 µM [falling, single point] |
| CCCOc1c(OC)cccc1C1CC(=O)Nc2cc3c(cc21)OCO3 (stereo unspecified) | – | inconclusive: 18.4 µM [falling, single point] |
| CCC(C(=O)N1CCN(c2cccc(C)c2C)CC1)n1nc(C)c2sc3ccccc3c2c1=O (stereo unspecified) | – | inconclusive: 10.3 µM [falling, partial curve, poor fit] |
| Oc1cccc(/C=N/Nc2cc(N3CCOCC3)nc(N3CCOCC3)n2)c1 | – | inconclusive: 11.6 µM [activator, partial curve, poor fit] |
| COc1ccc(CCNC(=O)Cn2cc(C(=O)c3ccccc3)c(=O)c3ccc(C)nc32)cc1OC | inactive: -0.371% | – |
| CC(C)C[C@H](NC(=O)c1nc[nH]c1C(=O)N[C@@H](CCCCNC(=O)OC(C)(C)C)C(=O)OC(C)(C)C)C(=O)OCc1ccccc1 | – | inconclusive: 32.6 µM [falling, partial curve, poor fit] |
| COC(=O)CNC(=O)c1cn(CC(C)C)c(=O)c2cc(OC)c(OC)cc12 | – | inconclusive: 23.1 µM [falling, partial curve, poor fit] |
| COc1ccc(N(CC(=O)NCCSc2ccccn2)S(C)(=O)=O)cc1 | inactive: -1.45% | – |
| O=C1C=C(O)c2cccc3cccc1c23 | – | inconclusive: 25.9 µM [falling, partial curve, poor fit] |
| O=C(c1ccc(F)cc1)N1CCN2C(=O)c3ccccc3C12c1ccc(Cl)cc1 (stereo unspecified) | inactive: 2.81% | – |
| Cc1ccc2c(c1)c1c(c(=O)n(-c3ccccc3)c(=O)n1CC(=O)N1CCCC1)n2C | inactive: -5.61% | – |
| O=[N+]([O-])c1cccc(CN2C(COCc3ccccc3)CCC=CS2(=O)=O)c1 (stereo unspecified) | inactive: -6.19% | – |
| O=C(Nc1cccc(Cl)c1)OCc1cnc(Cl)s1 | inactive: 1.65% | – |
| CC(NC(=O)C(NS(=O)(=O)c1cccc2nsnc12)C(C)C)c1ccccc1 (stereo unspecified) | inactive: -2.32% | – |
| Cn1c(=O)n(C)c2cc(NC(=O)CCl)ccc21 | – | inconclusive: 6.51 µM [falling, partial curve, poor fit] |
| O=C(O)c1ccc(Nc2ccc([N+](=O)[O-])c3nonc23)cc1 | – | inconclusive: 23.1 µM [falling, single point] |
| Cc1cc(C)c2nc(C)cc(Nc3ccc(C(=O)NCCO)cc3)c2c1 | – | inconclusive: 9.2 µM [falling, partial curve, poor fit] |
